# Laboratory results reported in the supplement of paper PMC8728848.
# Some of the results follow.
# What was measured:
# Assay in all cases: glycan array binding signal (z-score within array); higher = stronger binding
# Conditions in all cases: glycan notation: IUPAC condensed, linker removed
# Gal(b1-3)Gal = biological target: Gal(b1-3)Gal
# In short: (§1)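 The binding signal is a Z-score computed within each array. Data were drawn from 3228 arrays in the Consortium for Functional Glycomics database, restricted to those with a known protein sequence. Scores were averaged over arrays of the same protein sequence at different concentrations or buffers, and over linkers, and negative values can be taken as non-binding.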
# Gal(b1-3)Gal(b1-4)GlcNAc = biological target: Gal(b1-3)Gal(b1-4)GlcNAc
# In short: as §1
# [1] = biological target: Gal(b1-3)Gal(b1-4)GlcNAc(b1-2)Man(a1-3)[Gal(b1-3)Gal(b1-4)GlcNAc(b1-2)Man(a1-6)]Man(b1-4)GlcNAc(b1-4)GlcNAc
# In short: as §1
# Gal(b1-3)GalNAc = biological target: Gal(b1-3)GalNAc
# In short: as §1
# [2] = biological target: Gal(b1-3)GalNAc(a1-3)[Fuc(a1-2)]Gal(b1-4)Glc
# In short: as §1
# [3] = biological target: Gal(b1-3)GalNAc(a1-3)[Fuc(a1-2)]Gal(b1-4)GlcNAc
# In short: as §1
# [4] = biological target: Gal(b1-3)GalNAc(b1-3)Gal(a1-4)Gal(b1-4)Glc
# In short: as §1
# [5] = biological target: Gal(b1-3)GalNAc(b1-4)Gal(b1-4)Glc
# In short: as §1
# [6] = biological target: Gal(b1-3)GalNAc(b1-4)[Neu5Ac(a2-3)]Gal(b1-4)Glc
# In short: as §1
# Gal(b1-3)GlcNAc = biological target: Gal(b1-3)GlcNAc
# In short: as §1
# [7] = biological target: Gal(b1-3)GlcNAc(b1-2)Man(a1-3)[Gal(b1-3)GlcNAc(b1-2)Man(a1-6)]Man(b1-4)GlcNAc(b1-4)GlcNAc
# In short: as §1
# [8] = biological target: Gal(b1-3)GlcNAc(b1-2)Man(a1-3)[Gal(b1-3)GlcNAc(b1-2)Man(a1-6)]Man(b1-4)GlcNAc(b1-4)[Fuc(a1-6)]GlcNAc
# In short: as §1
# [9] = biological target: Gal(b1-3)GlcNAc(b1-3)Gal(b1-3)GlcNAc
# In short: as §1
# [10] = biological target: Gal(b1-3)GlcNAc(b1-3)Gal(b1-4)Glc
# In short: as §1
# [11] = biological target: Gal(b1-3)GlcNAc(b1-3)Gal(b1-4)GlcNAc
# In short: as §1
# [12] = biological target: Gal(b1-3)[Fuc(a1-4)]GlcNAc
# In short: as §1
# [13] = biological target: Gal(b1-3)[Fuc(a1-4)]GlcNAc(b1-2)Man(a1-3)[Gal(b1-3)[Fuc(a1-4)]GlcNAc(b1-2)Man(a1-6)]Man(b1-4)GlcNAc(b1-4)GlcNAc
# In short: as §1
# [14] = biological target: Gal(b1-3)[Fuc(a1-4)]GlcNAc(b1-2)Man(a1-3)[Gal(b1-3)[Fuc(a1-4)]GlcNAc(b1-2)Man(a1-6)]Man(b1-4)GlcNAc(b1-4)[Fuc(a1-6)]GlcNAc
# In short: as §1
# [15] = biological target: Gal(b1-3)[Fuc(a1-4)]GlcNAc(b1-3)Gal(b1-3)[Fuc(a1-4)]GlcNAc
# In short: as §1
# [16] = biological target: Gal(b1-3)[Fuc(a1-4)]GlcNAc(b1-3)Gal(b1-4)GlcNAc
# In short: as §1
# [17] = biological target: Gal(b1-3)[Fuc(a1-4)]GlcNAc(b1-3)Gal(b1-4)[Fuc(a1-3)]GlcNAc
# In short: as §1
# [18] = biological target: Gal(b1-3)[GlcNAc(b1-6)]GalNAc
# In short: as §1
# [19] = biological target: Gal(b1-3)[Neu5Ac(a2-6)]GalNAc
# In short: as §1
# [20] = biological target: Gal(b1-3)[Neu5Ac(a2-6)]GlcNAc(b1-6)Gal(b1-4)Glc
# In short: as §1
# [21] = biological target: Gal(b1-3)[Neu5Ac(b2-6)]GalNAc
# In short: as §1
# [22] = biological target: Gal(b1-4)GalNAc(a1-3)[Fuc(a1-2)]Gal(b1-4)GlcNAc
# In short: as §1
# [23] = biological target: Gal(b1-4)GalNAc(b1-3)[Fuc(a1-2)]Gal(b1-4)GlcNAc
# In short: as §1
# Gal(b1-4)Glc = biological target: Gal(b1-4)Glc
# In short: as §1
# Gal(b1-4)Glc6S = biological target: Gal(b1-4)Glc6S
# In short: as §1
# Gal(b1-4)GlcNAc = biological target: Gal(b1-4)GlcNAc
# In short: as §1
# [24] = biological target: Gal(b1-4)GlcNAc(a1-6)Gal(b1-4)GlcNAc
# In short: as §1
# [25] = biological target: Gal(b1-4)GlcNAc(b1-2)Man(a1-3)Man(b1-4)GlcNAc(b1-4)GlcNAc
# In short: as §1
# [26] = biological target: Gal(b1-4)GlcNAc(b1-2)Man(a1-3)[Gal(b1-4)GlcNAc(b1-2)Man(a1-6)]Man(b1-4)GlcNAc(b1-4)GlcNAc
# In short: as §1
# [27] = biological target: Gal(b1-4)GlcNAc(b1-2)Man(a1-3)[Gal(b1-4)GlcNAc(b1-2)Man(a1-6)]Man(b1-4)GlcNAc(b1-4)[Fuc(a1-6)]GlcNAc
# In short: as §1
# [28] = biological target: Gal(b1-4)GlcNAc(b1-2)Man(a1-3)[Man(a1-6)]Man(b1-4)GlcNAc(b1-4)GlcNAc
# In short: as §1
# [29] = biological target: Gal(b1-4)GlcNAc(b1-2)Man(a1-6)Man(b1-4)GlcNAc(b1-4)GlcNAc
# In short: as §1
# [30] = biological target: Gal(b1-4)GlcNAc(b1-2)Man(a1-6)[Man(a1-3)]Man(b1-4)GlcNAc(b1-4)GlcNAc
# In short: as §1
binder,measurement,setting,value
PP2A1 (Arabidopsis thaliana) (protein) MFRNQDSKYLIPVQKEAPPVTTLPMKASTVKSPHNCEAILRDADPPISLSSVNLSEQLRSGVFLKPKKQIKYWVDERNSNCFMLFAKNLSITWSDDVNYWTWFTEKESPNENVEAVGLKNVCWLDITGKFDTRNLTPGIVYEVVFKVKLEDPAYGWDTPVNLKLVLPNGKEKPQEKKVSLRELPRYKWVDVRVGEFVPEKSAAGEITFSMYEHAAGVWKKGLSLKGVAIRPKQHHHHHH,glycan array binding signal (z-score),Gal(b1-3)Gal,-0.257
same,glycan array binding signal (z-score),Gal(b1-3)Gal(b1-4)GlcNAc,-0.619
same,glycan array binding signal (z-score),[1],0.79
same,glycan array binding signal (z-score),Gal(b1-3)GalNAc,-0.309
same,glycan array binding signal (z-score),[2],-0.363
same,glycan array binding signal (z-score),[3],-0.287
same,glycan array binding signal (z-score),[4],0.083
same,glycan array binding signal (z-score),[5],-0.462
same,glycan array binding signal (z-score),[6],-0.569
same,glycan array binding signal (z-score),Gal(b1-3)GlcNAc,-0.488
same,glycan array binding signal (z-score),[7],1.27
same,glycan array binding signal (z-score),[8],0.342
same,glycan array binding signal (z-score),[9],-0.441
same,glycan array binding signal (z-score),[10],-0.088
same,glycan array binding signal (z-score),[11],-0.087
same,glycan array binding signal (z-score),[12],-0.368
same,glycan array binding signal (z-score),[13],0.314
same,glycan array binding signal (z-score),[14],1.34
same,glycan array binding signal (z-score),[15],-0.222
same,glycan array binding signal (z-score),[16],-0.485
same,glycan array binding signal (z-score),[17],-0.295
same,glycan array binding signal (z-score),[18],-0.306
same,glycan array binding signal (z-score),[19],-0.322
same,glycan array binding signal (z-score),[20],0.183
same,glycan array binding signal (z-score),[21],-0.382
same,glycan array binding signal (z-score),[22],-0.498
same,glycan array binding signal (z-score),[23],-0.362
same,glycan array binding signal (z-score),Gal(b1-4)Glc,-0.162
same,glycan array binding signal (z-score),Gal(b1-4)Glc6S,0.116
same,glycan array binding signal (z-score),Gal(b1-4)GlcNAc,-0.411
same,glycan array binding signal (z-score),[24],-0.205
same,glycan array binding signal (z-score),[25],1.02
same,glycan array binding signal (z-score),[26],0.914
same,glycan array binding signal (z-score),[27],0.074
same,glycan array binding signal (z-score),[28],2.93
same,glycan array binding signal (z-score),[29],0.362
same,glycan array binding signal (z-score),[30],0.438

# Some of the entries above in another layout:
binder | measurement | setting | value
PP2A1 (Arabidopsis thaliana) (protein) MFRNQDSKYLIPVQKEAPPVTTLPMKASTVKSPHNCEAILRDADPPISLSSVNLSEQLRSGVFLKPKKQIKYWVDERNSNCFMLFAKNLSITWSDDVNYWTWFTEKESPNENVEAVGLKNVCWLDITGKFDTRNLTPGIVYEVVFKVKLEDPAYGWDTPVNLKLVLPNGKEKPQEKKVSLRELPRYKWVDVRVGEFVPEKSAAGEITFSMYEHAAGVWKKGLSLKGVAIRPKQHHHHHH | glycan array binding signal (z-score) | [5] | -0.462
same | glycan array binding signal (z-score) | [19] | -0.322
same | glycan array binding signal (z-score) | [25] | 1.02
